Measurements taken from PubChem BioAssay AID504467 (National Center for Advancing Translational Sciences (NCATS), 2011).
Among all 330,000 compounds or so, about 7,700 (2.3%) were called active. Inconclusive means that the source gave no clear call. Such entries were picked first, then a sample of the others. Calls follow the shape of the dose curve; as a rule, active = well fitted inhibition curve with a large enough effect; inconclusive = small, poorly fitted or top-dose-only effect, or effect the other way; inactive = flat fitted curve, though single readings scatter. Where the call is inconclusive, the potency comes from a doubtful curve fit.

Assay: qHTS screen for small molecules that inhibit ELG1-dependent DNA repair in human embryonic kidney (HEK293T) cells expressing luciferase-tagged ELG1; also: nearly all actives have a fitted effect of over 55% in size
Settings: HEK293T ELG1-luciferase reporter, luminescence, 16 h, DNA damage induced by 5-fluorouridine; activity change, negative = inhibition: at 46.1 µM (top of the series)
Method in brief: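 In this reporter screen, reduction of luminescence relative to DMSO vehicle indicated activity. Compounds and 5-fluorouridine were added together to 2,000 cells per well, incubated for 16 hr at 37 °C, then developed with ONE-Glo.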
% is scaled to controls: 0 for no effect and ±100 for the full control effect; potency is read from the fitted curve at half-maximal effect.

| SMILES | Potency | activity change, negative = inhibition |
| --- | --- | --- |
| O=C(Nc1cccc(S(=O)(=O)NC2=NCCCCC2)c1)c1cc(-c2ccccc2)nc2ccccc12 | inconclusive: 13 µM [inhibitor, partial curve, poor fit] |  |
| O=C(c1ccc(Cl)cc1)N1CCN(C(=O)c2ccco2)CC1 |  | inactive: 9.51% |
| COc1ccc(CCNC(=O)CN(c2ccc(C)cc2)S(=O)(=O)c2c(C)noc2C)cc1OC |  | inactive: -8.67% |
| CN(C)c1ccc(C2CC(=O)C=C(Nc3ccccc3N)C2)cc1 (stereo unspecified) | inconclusive: 7.3 µM [activator, partial curve, poor fit] |  |
| COc1c2c(cc3ccc(=O)oc13)CCO2 |  | inactive: -4.09% |
| O=C(Nc1ncccn1)c1cc(-c2cccc(Br)c2)nc2ccccc12 | inconclusive: 23.1 µM [inhibitor, partial curve] |  |
| O=C(Cc1ccc2c(c1)OCCO2)Nc1cc(C(F)(F)F)ccc1N1CCOCC1 |  | inactive: -16.1% |
| CCCN1C2CCCC1CC(NC(=O)NC1CCCCC1)C2 (stereo unspecified) | inconclusive: 11.6 µM [activator, partial curve] |  |
| COc1ccc(NC2=CC(=O)CC(c3ccccc3)C2)c(OC)c1 (stereo unspecified) | inconclusive: 29.1 µM [activator, single point] |  |
| Cc1nn(CC(=O)Nc2c(F)c(F)cc(F)c2F)c(=O)c2cccn12 |  | inactive: 13% |
| COc1ccc(CCNC(=O)Cn2cnc3sc(C)c(-c4ccc(F)cc4)c3c2=O)cc1OC | inconclusive: 23.1 µM [inhibitor, single point] |  |
| Cn1ccc2ccc(C3=CC(=O)C[C@H](c4ccc(F)cc4)C3)cc21 | inconclusive: 18.3 µM [inhibitor, partial curve] |  |
| CC(C(=O)NC1C=CS(=O)(=O)C1)N1C(=O)/C(=C\c2ccccc2)SC1=S (stereo unspecified) |  | inactive: 18.1% |
| CC1CCCN(C(=O)c2ccncc2)C1 (stereo unspecified) |  | inactive: 5.15% |
| COC(=O)c1cccc(C23CC4(C2)[C@H](CN(Cc2ccc(C(F)(F)F)cc2)[C@@H]4c2ccccc2)C3c2ccccc2)c1 (stereo partly specified) |  | inactive: 0% |
| Cc1cccc(C(=O)NC(=S)NNC(=O)COc2c(C)cccc2C)c1 |  | inactive: 1% |
| COc1ccc(/C=C/C(=O)N2CCN(S(=O)(=O)c3ccccc3)CC2)cc1OC |  | inactive: -0.527% |
| C[n+]1cc[nH]c1SCC(=O)c1ccccc1 | inconclusive: 20.6 µM [activator, partial curve] |  |
| CCOC(=O)c1c(NC(=O)C2=C(C)NC(=S)NC2c2ccccc2C(F)(F)F)sc(C)c1C (stereo unspecified) | active: 23.1 µM |  |
| O=S(=O)(c1cccc(F)c1)N1CCc2sccc2C1c1ccc(OC(F)(F)F)cc1 (stereo unspecified) | inconclusive: 18.3 µM [inhibitor, single point] |  |
| O=C(Nc1ccc2c(c1)OCCO2)c1ccc(Br)c(S(=O)(=O)N2CCOCC2)c1 | inconclusive: 23.1 µM [inhibitor, single point] |  |

A different layout for two compounds above.
CC(C(=O)NC1C=CS(=O)(=O)C1)N1C(=O)/C(=C\c2ccccc2)SC1=S (stereo unspecified)
  activity change, negative = inhibition: inactive: 18.1%
COC(=O)c1cccc(C23CC4(C2)[C@H](CN(Cc2ccc(C(F)(F)F)cc2)[C@@H]4c2ccccc2)C3c2ccccc2)c1 (stereo partly specified)
  activity change, negative = inhibition: inactive: 0%
